PubChem BioAssay AID602196 | INSERM, 2012

Purpose: 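Genes whose knock-down alters cisplatin killing of lung cancer cells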
Cells: human A549 lung cancer cells
Reagents: siRNA pair against human genes
Time to read-out: 48 h transfection before cisplatin; time from cisplatin to read-out not stated
Treatment: cisplatin at a dose killing half of control-siRNA cells; exact dose and duration not given
Detection: 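Cisplatin cell death as a shift from the 50% death seen with control siRNA; siRNAs toxic or growth-blocking alone scored 0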
Direction: two-siRNA summed score (-2 to +2): higher = both siRNAs protect from cisplatin killing; -2 means both sensitise; mean protection from cisplatin (shift in death) and protection from cisplatin (shift in death), siRNA C: higher = protection from cisplatin killing
Rule for the call: 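Each siRNA scores 0 if harmful alone by LDH or WST-1, otherwise +1 if it reduces and -1 if it increases cisplatin killing; a gene is active when both siRNAs agree (sum +2 or -2)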
Calls: active = both siRNAs shift cisplatin killing the same way; inactive = no consistent shift, or siRNA harmful alone
Here is one part, drawn at random, of about 23,000 reagents tested. In the full data, 455 (2%) are marked active. 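Active includes both protection and sensitisation; some change values fall well beyond the stated -50 to +50 range.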 A number with no mark means an inactive call. Not all columns of the deposit are shown. Reagent sequences are not shown. Not stated in the record: the amount of reagent.

gene knocked down,two-siRNA summed score (-2 to +2),mean protection from cisplatin (shift in death) (%),"protection from cisplatin (shift in death), siRNA C (%)"
TRIM51EP (GeneID 399940),0,5.1,3.3
INTS15 (GeneID 79034),0,-3.8,-4.2
TMEM263 (GeneID 90488),1,14.7,22.2
ANOS1 (GeneID 3730),1,14.4,15.6
LSM8 (GeneID 51691),0,-3.6,-11.2
LOC285018,0,33.7,12.6
HSF2BP (GeneID 11077),0,1.3,4.5
SLC25A40 (GeneID 55972),1,9.1,-1.7
PPP1R36 (GeneID 145376),0,-1.5,-0.6
LOC389117,0,5.7,8.3
ITGBL1 (GeneID 9358),0,0.8,11
TLCD3B (GeneID 83723),0,1,5
PMM1 (GeneID 5372),-1,-19.4,-24.5

Not a retest: entries from further up.
gene knocked down,two-siRNA summed score (-2 to +2),mean protection from cisplatin (shift in death) (%),"protection from cisplatin (shift in death), siRNA C (%)"
HSF2BP (GeneID 11077),0,1.3,4.5
SLC25A40 (GeneID 55972),1,9.1,-1.7
PPP1R36 (GeneID 145376),0,-1.5,-0.6

More results follow.
gene knocked down,two-siRNA summed score (-2 to +2),mean protection from cisplatin (shift in death) (%),"protection from cisplatin (shift in death), siRNA C (%)"
ZNF81 (GeneID 347344),1,13.9,14.4
LRFN4 (GeneID 78999),0,4.5,-10.1
MINDY4 (GeneID 84182),0,-4.8,-6.5
EXOSC1 (GeneID 51013),0,10.4,24.7
NFE2L3 (GeneID 9603),0,2.6,6.2
LOC442392,1,10.1,-2.4
NDUFS4 (GeneID 4724),0,-21.7,-15.5
CABCOCO1 (GeneID 219621),0,4.7,3
SIT1 (GeneID 27240),0,19.4,43.8
LAT2 (GeneID 7462),0,-2.5,-11.9
